# From the supplement of paper PMC12823440, “Inhibitors supercharge kinase turnover through native proteolytic circuits” (Nature, 2025)
# Protein sequences, listed by entry. Tags and fused reporters are not part of them. Lines headed by an entry give the natural chain unless they say otherwise; changes in a name come on top.
# UniProt P36888, whole entry: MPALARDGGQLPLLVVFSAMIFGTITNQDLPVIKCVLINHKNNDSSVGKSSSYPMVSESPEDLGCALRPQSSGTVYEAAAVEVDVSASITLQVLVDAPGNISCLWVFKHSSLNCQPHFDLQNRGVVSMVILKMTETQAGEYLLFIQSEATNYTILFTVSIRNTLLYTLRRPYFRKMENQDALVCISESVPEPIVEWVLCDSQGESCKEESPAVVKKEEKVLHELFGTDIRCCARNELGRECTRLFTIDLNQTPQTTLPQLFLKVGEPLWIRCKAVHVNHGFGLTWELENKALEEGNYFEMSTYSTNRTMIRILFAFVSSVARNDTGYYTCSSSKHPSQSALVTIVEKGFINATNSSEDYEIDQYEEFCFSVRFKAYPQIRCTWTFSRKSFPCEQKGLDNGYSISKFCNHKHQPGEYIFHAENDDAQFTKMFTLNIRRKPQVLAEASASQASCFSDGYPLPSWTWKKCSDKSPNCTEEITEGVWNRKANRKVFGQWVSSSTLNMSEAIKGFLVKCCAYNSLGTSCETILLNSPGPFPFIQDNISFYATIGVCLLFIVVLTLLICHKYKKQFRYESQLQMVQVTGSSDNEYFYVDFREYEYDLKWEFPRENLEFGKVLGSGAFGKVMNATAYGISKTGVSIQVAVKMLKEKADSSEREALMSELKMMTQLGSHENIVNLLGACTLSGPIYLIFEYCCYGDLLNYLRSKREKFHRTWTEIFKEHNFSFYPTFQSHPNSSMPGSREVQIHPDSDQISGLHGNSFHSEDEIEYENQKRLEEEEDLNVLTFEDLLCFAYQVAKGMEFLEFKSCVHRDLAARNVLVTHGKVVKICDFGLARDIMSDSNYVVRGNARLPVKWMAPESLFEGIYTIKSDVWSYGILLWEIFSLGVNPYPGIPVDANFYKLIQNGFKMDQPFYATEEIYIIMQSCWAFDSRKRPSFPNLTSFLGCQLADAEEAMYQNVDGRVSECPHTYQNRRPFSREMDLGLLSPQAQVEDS
# UniProt P49840: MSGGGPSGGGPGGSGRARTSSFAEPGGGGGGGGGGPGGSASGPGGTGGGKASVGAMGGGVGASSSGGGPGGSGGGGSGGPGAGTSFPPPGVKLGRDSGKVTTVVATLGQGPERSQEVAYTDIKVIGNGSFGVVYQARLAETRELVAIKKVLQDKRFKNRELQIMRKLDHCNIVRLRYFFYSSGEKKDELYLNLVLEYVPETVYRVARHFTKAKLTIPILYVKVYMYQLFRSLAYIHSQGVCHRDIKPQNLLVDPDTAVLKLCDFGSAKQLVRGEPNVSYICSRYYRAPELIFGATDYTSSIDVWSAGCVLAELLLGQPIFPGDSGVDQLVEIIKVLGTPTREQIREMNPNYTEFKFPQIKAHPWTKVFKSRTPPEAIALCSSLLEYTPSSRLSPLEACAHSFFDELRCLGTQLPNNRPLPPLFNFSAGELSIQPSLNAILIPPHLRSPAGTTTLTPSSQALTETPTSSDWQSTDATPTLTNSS
# UniProt Q9Y616: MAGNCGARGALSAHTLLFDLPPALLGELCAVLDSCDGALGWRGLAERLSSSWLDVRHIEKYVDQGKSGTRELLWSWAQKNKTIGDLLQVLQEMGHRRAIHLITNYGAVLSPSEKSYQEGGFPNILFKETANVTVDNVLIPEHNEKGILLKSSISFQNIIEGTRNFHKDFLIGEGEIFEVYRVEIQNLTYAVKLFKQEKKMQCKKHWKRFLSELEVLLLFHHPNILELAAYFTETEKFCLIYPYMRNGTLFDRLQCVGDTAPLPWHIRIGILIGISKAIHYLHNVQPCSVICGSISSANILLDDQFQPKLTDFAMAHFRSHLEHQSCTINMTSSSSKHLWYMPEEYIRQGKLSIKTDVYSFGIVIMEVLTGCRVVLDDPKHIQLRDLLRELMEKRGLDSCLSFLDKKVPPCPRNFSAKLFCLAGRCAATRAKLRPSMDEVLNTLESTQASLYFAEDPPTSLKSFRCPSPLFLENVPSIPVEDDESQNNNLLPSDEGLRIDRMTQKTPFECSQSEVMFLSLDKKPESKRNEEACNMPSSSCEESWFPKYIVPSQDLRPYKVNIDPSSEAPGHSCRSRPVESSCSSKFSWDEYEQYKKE
# UniProt P23458: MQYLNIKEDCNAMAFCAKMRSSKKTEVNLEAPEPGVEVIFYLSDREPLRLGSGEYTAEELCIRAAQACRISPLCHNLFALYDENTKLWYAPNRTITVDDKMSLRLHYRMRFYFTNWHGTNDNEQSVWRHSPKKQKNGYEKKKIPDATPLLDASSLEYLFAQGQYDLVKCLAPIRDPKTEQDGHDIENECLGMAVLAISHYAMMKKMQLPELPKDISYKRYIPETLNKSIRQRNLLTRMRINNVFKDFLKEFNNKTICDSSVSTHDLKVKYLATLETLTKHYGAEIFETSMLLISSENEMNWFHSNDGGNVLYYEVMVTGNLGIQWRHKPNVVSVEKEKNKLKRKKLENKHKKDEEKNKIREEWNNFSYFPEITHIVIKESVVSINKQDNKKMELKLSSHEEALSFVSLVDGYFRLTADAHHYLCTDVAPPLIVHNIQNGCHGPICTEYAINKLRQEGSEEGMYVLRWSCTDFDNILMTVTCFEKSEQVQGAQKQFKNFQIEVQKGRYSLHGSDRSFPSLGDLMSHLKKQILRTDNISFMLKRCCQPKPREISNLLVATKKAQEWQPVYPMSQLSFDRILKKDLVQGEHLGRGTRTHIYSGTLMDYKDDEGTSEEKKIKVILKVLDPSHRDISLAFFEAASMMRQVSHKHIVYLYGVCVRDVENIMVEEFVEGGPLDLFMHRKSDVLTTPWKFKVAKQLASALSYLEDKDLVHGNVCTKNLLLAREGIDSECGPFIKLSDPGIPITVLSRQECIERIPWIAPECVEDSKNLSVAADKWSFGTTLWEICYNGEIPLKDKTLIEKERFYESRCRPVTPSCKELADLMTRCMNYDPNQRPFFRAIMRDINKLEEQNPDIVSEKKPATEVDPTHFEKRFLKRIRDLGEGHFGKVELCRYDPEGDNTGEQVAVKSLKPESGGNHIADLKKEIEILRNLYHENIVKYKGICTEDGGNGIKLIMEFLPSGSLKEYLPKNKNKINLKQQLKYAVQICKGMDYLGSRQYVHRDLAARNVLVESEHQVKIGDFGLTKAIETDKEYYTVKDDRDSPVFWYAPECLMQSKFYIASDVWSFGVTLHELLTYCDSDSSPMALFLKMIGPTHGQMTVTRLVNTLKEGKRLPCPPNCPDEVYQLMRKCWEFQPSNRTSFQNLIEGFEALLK
# UniProt P06239: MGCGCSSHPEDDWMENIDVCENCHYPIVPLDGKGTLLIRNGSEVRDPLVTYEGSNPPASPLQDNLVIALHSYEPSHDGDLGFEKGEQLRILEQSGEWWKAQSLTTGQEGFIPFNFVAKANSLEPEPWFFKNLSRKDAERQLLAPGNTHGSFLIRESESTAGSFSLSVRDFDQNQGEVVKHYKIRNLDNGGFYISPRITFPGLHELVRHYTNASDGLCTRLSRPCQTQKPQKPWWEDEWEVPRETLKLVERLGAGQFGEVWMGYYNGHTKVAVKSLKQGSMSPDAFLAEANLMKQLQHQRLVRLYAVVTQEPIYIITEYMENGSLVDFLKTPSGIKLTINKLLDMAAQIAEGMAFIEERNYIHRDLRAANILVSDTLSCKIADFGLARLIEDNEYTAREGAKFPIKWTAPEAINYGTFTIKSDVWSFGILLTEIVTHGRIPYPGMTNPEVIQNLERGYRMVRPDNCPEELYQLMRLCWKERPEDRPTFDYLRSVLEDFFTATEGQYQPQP
# UniProt Q12851: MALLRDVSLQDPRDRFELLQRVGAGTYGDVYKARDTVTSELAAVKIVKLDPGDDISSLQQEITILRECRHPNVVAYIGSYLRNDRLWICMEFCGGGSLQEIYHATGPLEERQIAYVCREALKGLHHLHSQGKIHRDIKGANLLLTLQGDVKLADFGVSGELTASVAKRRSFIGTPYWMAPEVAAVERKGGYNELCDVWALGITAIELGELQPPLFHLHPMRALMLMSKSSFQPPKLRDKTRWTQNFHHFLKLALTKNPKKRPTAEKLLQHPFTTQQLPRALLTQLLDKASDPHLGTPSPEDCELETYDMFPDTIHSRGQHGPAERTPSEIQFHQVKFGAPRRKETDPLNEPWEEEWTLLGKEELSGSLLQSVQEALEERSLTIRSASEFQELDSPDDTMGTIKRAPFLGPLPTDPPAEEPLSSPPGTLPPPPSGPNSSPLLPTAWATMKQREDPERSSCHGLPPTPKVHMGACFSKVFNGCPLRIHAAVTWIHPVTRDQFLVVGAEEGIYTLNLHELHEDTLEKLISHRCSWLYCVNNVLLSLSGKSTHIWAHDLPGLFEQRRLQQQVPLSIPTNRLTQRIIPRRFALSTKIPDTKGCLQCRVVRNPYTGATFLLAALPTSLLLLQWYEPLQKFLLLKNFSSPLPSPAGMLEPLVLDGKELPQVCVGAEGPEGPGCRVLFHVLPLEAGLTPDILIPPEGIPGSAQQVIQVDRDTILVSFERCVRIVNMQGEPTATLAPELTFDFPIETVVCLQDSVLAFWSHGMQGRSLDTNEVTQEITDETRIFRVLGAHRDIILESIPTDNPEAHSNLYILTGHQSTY
# UniProt P49137, whole entry, looked up: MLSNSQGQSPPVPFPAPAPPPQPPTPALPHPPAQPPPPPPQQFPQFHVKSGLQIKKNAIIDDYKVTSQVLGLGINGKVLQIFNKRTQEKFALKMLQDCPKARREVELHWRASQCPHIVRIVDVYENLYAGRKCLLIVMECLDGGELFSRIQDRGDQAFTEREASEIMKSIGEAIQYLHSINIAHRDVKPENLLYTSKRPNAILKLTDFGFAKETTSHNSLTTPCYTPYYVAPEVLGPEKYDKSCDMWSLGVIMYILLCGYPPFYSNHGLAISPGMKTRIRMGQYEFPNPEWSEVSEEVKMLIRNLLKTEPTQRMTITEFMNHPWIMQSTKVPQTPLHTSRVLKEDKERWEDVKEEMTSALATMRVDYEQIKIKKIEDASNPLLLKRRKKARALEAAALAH
# UniProt Q9BUB5: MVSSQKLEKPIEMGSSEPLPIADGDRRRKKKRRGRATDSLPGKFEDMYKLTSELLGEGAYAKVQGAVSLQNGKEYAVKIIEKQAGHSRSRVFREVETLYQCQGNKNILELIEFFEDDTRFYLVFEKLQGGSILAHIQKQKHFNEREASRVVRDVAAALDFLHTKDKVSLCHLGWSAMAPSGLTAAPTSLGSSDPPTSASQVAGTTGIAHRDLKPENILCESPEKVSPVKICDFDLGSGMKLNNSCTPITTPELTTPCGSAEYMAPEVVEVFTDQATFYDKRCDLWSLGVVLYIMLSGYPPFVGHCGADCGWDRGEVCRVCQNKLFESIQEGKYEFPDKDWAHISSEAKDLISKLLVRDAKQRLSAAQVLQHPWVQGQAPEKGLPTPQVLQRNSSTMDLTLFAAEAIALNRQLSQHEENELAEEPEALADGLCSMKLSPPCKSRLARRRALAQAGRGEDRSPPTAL
# UniProt Q16620, whole entry, looked up: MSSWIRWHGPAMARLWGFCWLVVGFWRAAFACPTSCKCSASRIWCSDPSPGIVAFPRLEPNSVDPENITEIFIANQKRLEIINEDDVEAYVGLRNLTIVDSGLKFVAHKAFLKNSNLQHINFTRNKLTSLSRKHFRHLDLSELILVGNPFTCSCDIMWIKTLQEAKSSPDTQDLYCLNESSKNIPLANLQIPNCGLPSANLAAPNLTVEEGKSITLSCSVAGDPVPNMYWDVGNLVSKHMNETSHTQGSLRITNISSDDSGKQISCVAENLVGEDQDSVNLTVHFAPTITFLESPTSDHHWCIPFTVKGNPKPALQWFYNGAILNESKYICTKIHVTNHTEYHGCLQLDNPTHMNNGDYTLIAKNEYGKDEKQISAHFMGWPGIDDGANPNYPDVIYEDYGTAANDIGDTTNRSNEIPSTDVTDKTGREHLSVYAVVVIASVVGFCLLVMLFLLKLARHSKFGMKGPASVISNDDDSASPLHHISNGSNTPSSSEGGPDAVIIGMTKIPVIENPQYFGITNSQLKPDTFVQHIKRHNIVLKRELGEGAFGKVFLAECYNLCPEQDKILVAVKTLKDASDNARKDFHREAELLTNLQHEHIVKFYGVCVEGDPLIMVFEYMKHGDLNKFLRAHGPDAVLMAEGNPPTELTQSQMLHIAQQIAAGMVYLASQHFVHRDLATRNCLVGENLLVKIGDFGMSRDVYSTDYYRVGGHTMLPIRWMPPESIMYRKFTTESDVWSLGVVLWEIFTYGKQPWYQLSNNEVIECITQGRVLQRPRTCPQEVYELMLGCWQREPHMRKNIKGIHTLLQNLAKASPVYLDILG
# Where a name gives a salt, the structure may show the parent alone. The list shows a part of the results. Hit calls seldom repeat between salt and free forms of one compound.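 Kinases, fused to nanoluciferase, were expressed in K562 cells; luminescence was measured every 4 h from 2 to 18 h as percent of control (DMSO = 100%, positive control = 0%). A time point is decreased if signal falls significantly (2 sigma). Hits were called by the authors by a rule that is not shown; the count of time points alone does not decide it.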
# Experiments:
# Test in all cases: number of time points (of 5) at which kinase-Nluc abundance scored as decreased, DMSO-normalised (count); higher = more persistent destabilization
# Conditions in all cases: K562; 2-18 h
# FLT3 = FLT3 (UniProt P36888)
# FYN = FYN (UniProt P06241)
# GSK3A = GSK3A (UniProt P49840)
# HER2 = HER2 (UniProt P04626)
# INSRR = INSRR (UniProt P14616)
# IRAK3 = IRAK3 (UniProt Q9Y616)
# JAK1 = JAK1 (UniProt P23458)
# LCK = LCK (UniProt P06239)
# LIMK1 = LIMK1 (UniProt P53667)
# LIMK2 = LIMK2 (UniProt P53671)
# LMTK2 = LMTK2 (UniProt Q8IWU2)
# LYN = LYN (UniProt P07948)
# MAP2K1 = MAP2K1 (UniProt Q02750)
# MAP2K2 = MAP2K2 (UniProt P36507)
# MAP4K2 = MAP4K2 (UniProt Q12851)
# MAPK1 = MAPK1 (UniProt P28482)
# MAPK4 = MAPK4 (UniProt P31152)
# MAPKAPK2 = MAPKAPK2 (UniProt P49137)
# MKNK1 = MKNK1 (UniProt Q9BUB5)
# NTRK2 = NTRK2 (UniProt Q16620)
Structure (SMILES),number of time points (FLT3),number of time points (FYN),number of time points (GSK3A),number of time points (HER2),number of time points (INSRR),number of time points (IRAK3),number of time points (JAK1),number of time points (LCK),number of time points (LIMK1),number of time points (LIMK2),number of time points (LMTK2),number of time points (LYN),number of time points (MAP2K1),number of time points (MAP2K2),number of time points (MAP4K2),number of time points (MAPK1),number of time points (MAPK4),number of time points (MAPKAPK2),number of time points (MKNK1),number of time points (NTRK2)
Nc1ncc(-c2cccc(N3CCNCC3)c2)cc1C(=O)Nc1ccncc1 [PKC-iota inhibitor 1] (10 µM),0,0,0,0,0,0,0,0,0,0,0,0,0,0,0,0,0,0,0,0
Cn1cnc(-c2cc3nccc(Oc4ccc(NC(=S)NC(=O)Cc5ccccc5)cc4F)c3s2)c1 [MGCD-265 analog] (10 µM),3,4,0,4,4,3,3,1,0,0,3,1,0,1,0,1,0,0,3,3
C#CCN(C)C(=O)CCNc1nc(N2CCN(C(=O)C=C)CC2)c2cc(Cl)c(-c3c(O)cccc3F)c(F)c2n1 [ARS-1323-alkyne] (2.5 µM),0,0,0,0,0,0,0,0,0,0,0,0,0,0,0,0,0,0,0,0
CN(CC(=O)N(Cc1ccc(C2CCCCC2)cc1)c1ccc(C(=O)O)cc1)S(=O)(=O)c1c(F)c(F)c(F)c(F)c1F (2.5 µM),0,0,0,0,0,0,0,0,0,0,0,0,0,0,0,0,0,0,0,0
N[C@H](Cc1c[nH]c2ccccc12)C(=O)N/N=C/c1ccc2nccnc2c1 [Rhosin (hydrochloride)] (10 µM),0,0,0,0,0,0,0,0,0,0,0,0,0,0,0,0,0,0,0,0
Nc1nccc(Oc2ccc(NC(=O)c3cn(COP(=O)(O)O)cc(-c4ccc(F)cc4)c3=O)cc2F)c1Cl (10 µM),0,0,0,0,0,0,0,0,2,0,0,0,0,0,0,0,0,0,0,0
"O=C(/C=C/c1ccc(O)c(O)c1)OC1CC(OC(=O)/C=C/c2ccc(O)c(O)c2)(C(=O)O)CC(O)C1O (stereo not given) [1,3-Dicaffeoylquinic acid] (10 µM)",0,0,0,0,0,0,0,0,0,0,0,0,0,0,0,0,0,0,0,0
Cc1noc(C)c1-c1ccc(-c2cc(C(N)=O)c(NC(N)=O)s2)c(O[C@H]2CCNC2)c1 (10 µM),0,0,0,0,0,0,0,0,0,0,0,0,0,0,0,0,0,0,0,0
NC1(Cc2ccc(Cl)cc2)CCN(c2ncnc3[nH]ccc23)CC1 (10 µM),0,0,0,0,0,0,0,0,0,0,0,0,0,0,0,0,0,0,0,0
O=C(CNC(=O)c1ccc(-c2ccccc2)cc1)NC1CCCc2ccccc21 (stereo not given) [TAO Kinase inhibitor 1] (10 µM),0,0,0,0,0,0,0,0,0,0,0,0,0,0,0,0,0,0,0,0
Nc1cc(Nc2ccc(S(N)(=O)=O)cc2)ncn1 (10 µM),0,0,0,0,1,0,0,0,0,0,0,0,0,0,0,0,0,0,0,0
COc1cc(N2CCC(N3CCN(C)CC3)CC2)ccc1Nc1ncc(Cl)c(Nc2ccccc2P(C)(C)=O)n1 [Brigatinib] (2 µM),0,2,0,3,0,0,0,0,0,0,0,0,0,0,0,0,0,0,0,0
CC(C)(C)c1ccc(S(=O)(=O)Nc2ccc(-n3ccnc3)cc2)cc1 (10 µM),0,0,0,0,0,0,0,0,0,0,0,0,0,0,0,0,0,0,0,0
CC(C)c1cnc(-c2cc(Cl)ccc2F)cc1Nc1ccncc1C(=O)NC(CO)CO (2.5 µM),0,0,0,0,0,0,0,0,0,0,0,0,0,0,0,0,0,0,0,0
CC(C)CN[C@H]1CS(=O)(=O)C[C@@H]1S(=O)(=O)c1ccc(Cl)cc1 (10 µM),0,0,0,1,1,0,0,0,0,0,0,0,0,0,0,0,0,0,0,0
COc1cccc(-n2c(=O)[nH]c3cc(Cl)n(-c4ccc(-c5cccc(OC)c5O)cc4)c3c2=O)c1 (2.5 µM),0,0,0,0,0,0,0,0,0,0,1,0,0,0,0,0,0,0,0,0
CC1CCc2nc(N)c(C#N)c(-c3cccnc3)c2C1 (stereo not given) (10 µM),0,0,0,0,0,0,0,0,0,0,0,0,0,0,0,0,0,0,0,0

Structure (SMILES),number of time points (FLT3),number of time points (FYN),number of time points (GSK3A),number of time points (HER2),number of time points (INSRR),number of time points (IRAK3),number of time points (JAK1),number of time points (LCK),number of time points (LIMK1),number of time points (LIMK2),number of time points (LMTK2),number of time points (LYN),number of time points (MAP2K1),number of time points (MAP2K2),number of time points (MAP4K2),number of time points (MAPK1),number of time points (MAPK4),number of time points (MAPKAPK2),number of time points (MKNK1),number of time points (NTRK2)
C=CC(=O)Nc1cccc(C)c1Nc1ncc2cc(-c3c(Cl)c(OC)cc(OC)c3Cl)ccc2n1 (2.5 µM),0,2,0,0,0,0,0,0,0,0,0,0,0,0,0,0,0,0,0,0
O=c1oc2cc(O)ccc2c2ccccc12 [Urolithin B] (10 µM),0,0,0,0,0,0,0,0,0,0,0,0,0,0,0,0,0,0,0,0
Fc1ccc(-c2nc(-c3c(F)cccc3F)[nH]c2-c2ccncc2)cc1 (10 µM),0,0,0,0,0,0,0,0,0,0,1,0,0,0,0,0,0,0,0,0
CC1CN(C(=O)Nc2ccc(Cl)c(Cl)c2)C(=Nc2ccc(F)cc2)S1 (stereo not given) (10 µM),0,0,0,0,0,0,0,0,0,0,0,0,0,0,0,0,0,0,0,0
Cc1ccc(Nc2cc(-c3cccc(N4C(=O)c5ccccc5C4=O)c3)ncn2)cc1NS(C)(=O)=O (10 µM),0,0,0,0,0,1,1,0,0,0,1,0,0,0,0,0,0,0,1,0
Nc1ncnc2c1c(-c1ccc(Oc3ccccc3)cc1)nn2C1CCCNC1 (racemic) (2.5 µM),0,0,0,0,0,0,0,0,0,0,0,0,0,0,0,0,0,0,0,0
O=C(O)CCc1ccc(O)c(O)c1 [Dihydrocaffeic acid] (10 µM),0,0,0,0,0,0,0,0,0,0,0,0,0,0,0,1,0,0,0,0
O=[N+]([O-])c1cc(C(F)(F)F)cc([N+](=O)[O-])c1NNC(=S)Nc1ccc(F)cc1 (10 µM),0,0,0,0,0,0,0,0,0,0,0,0,0,0,0,0,0,0,0,0
O=C(Nc1cccnc1)c1cc(C(=O)c2c(F)cccc2Br)c[nH]1 (10 µM),0,0,0,0,0,0,0,0,0,0,0,0,0,0,0,0,0,0,0,0
CC[C@@]1(c2ccccc2)C2=C(CC(C)(C)CC2=O)Nc2[nH]ncc21 (10 µM),0,0,0,0,0,0,0,0,0,0,0,0,0,0,0,0,0,0,0,0
CNC(=O)Nc1ccc(-c2cc(-c3ccnc(Nc4ccc(C)c(S(=O)(=O)N(C)C)c4)n3)ccn2)cc1 [hSMG-1 inhibitor 11e] (2.5 µM),4,3,0,0,0,0,2,0,0,0,0,0,0,0,0,0,0,0,0,1
CC(C)CC1(O)CCN(C(=O)c2ccc(NS(=O)(=O)c3cccc4nccnc34)cc2)CC1 (10 µM),0,0,0,0,0,0,0,0,0,0,0,0,0,0,0,0,0,0,0,0
O=C(Nc1ccc(F)cc1F)[C@H](NC(=S)Nc1cc(C(F)(F)F)cc(C(F)(F)F)c1)c1ccccc1 (2.5 µM),0,0,0,0,0,0,0,0,0,0,0,0,0,0,0,0,0,0,0,0
Cc1ccc(S(=O)(=O)Nc2ccccc2C=Nc2ccccc2NS(=O)(=O)c2ccc(C)cc2)cc1 (10 µM),0,0,0,0,0,0,0,0,0,0,0,0,0,0,0,0,0,0,0,0
CS(=O)(=O)c1ccc(-c2noc(C(F)(F)F)c2-c2ccccc2)cc1 (10 µM),0,0,0,0,0,0,0,0,0,0,0,0,0,0,0,0,0,0,0,0
C=C(CCC=C(C)C)[C@H]1CC[C@]2(C)[C@@H]1[C@H](O)C[C@@H]1[C@@]3(C)CC[C@H](O[C@@H]4O[C@H](CO)[C@@H](O)[C@H](O)[C@H]4O[C@@H]4O[C@H](CO)[C@@H](O)[C@H](O)[C@H]4O)C(C)(C)[C@@H]3CC[C@]12C [Ginsenoside Rk1] (10 µM),0,0,0,0,0,0,0,0,0,0,0,0,0,0,0,0,0,0,0,0
